Measured values: article PMC9052155
Results are given in words; binding and its absence hold for the method and conditions named. Binding seen in cells or lysates may run through a third protein. Some results given as binding are weak or reduced against the parent protein; the word gives no strength.

By UniProt entry, the sequences of proteins in these tests, tags left out.
UniProt Q00987: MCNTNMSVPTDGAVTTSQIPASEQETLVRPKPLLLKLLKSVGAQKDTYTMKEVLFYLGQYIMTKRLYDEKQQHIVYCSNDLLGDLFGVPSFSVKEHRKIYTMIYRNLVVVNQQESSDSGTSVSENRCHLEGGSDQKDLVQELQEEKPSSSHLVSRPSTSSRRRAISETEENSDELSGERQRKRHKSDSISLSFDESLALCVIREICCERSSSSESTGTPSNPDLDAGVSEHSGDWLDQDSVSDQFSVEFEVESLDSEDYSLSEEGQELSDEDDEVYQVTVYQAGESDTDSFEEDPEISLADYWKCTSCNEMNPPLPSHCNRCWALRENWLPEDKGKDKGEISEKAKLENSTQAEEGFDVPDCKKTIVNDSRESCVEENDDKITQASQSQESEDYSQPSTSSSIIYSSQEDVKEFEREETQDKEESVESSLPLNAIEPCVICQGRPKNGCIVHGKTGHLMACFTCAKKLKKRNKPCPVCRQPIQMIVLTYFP

Experiments:
[1] = target: HA-tagged β-arrestin2 (WT) (rat) (UniProt P29067); experiment: co-IP; co-IP of β-arr2 WT or β-arr2F116A with USP20, MDM2 and c-RAF (Figure S1); cells, constructs and direction not shown
[2] = target: HA-tagged β-arr2F116A (rat) (UniProt P29067); experiment: as above
[3] = target: HA-tagged β-arrestin2 (WT) (rat) (UniProt P29067); experiment: co-IP; HA-tagged β-arr2 constructs precipitated with anti-HA agarose from HEK-293 lysates (50 mM HEPES pH 7.5, 2 mM EDTA, 250 mM NaCl, 10% glycerol, 0.5% NP-40; 4 °C overnight); partners detected by immunoblot; cells unstimulated or stimulated with isoproterenol (Figures 1C, 1F, 5C)

Substance | binding [1] | binding [2] | binding [3]
USP20 (as used in Figure S1) (from UniProt Q9Y2K6 1-914) (enzyme) | binds | binds | 
c-RAF (from UniProt P04049 1-648) (enzyme) |  | binds | 
mouse double minute 2 (from UniProt Q00987 1-491) (enzyme) | binds | binds | binds
ubiquitin-specific peptidase 20 (endogenous) (from UniProt Q9Y2K6 1-914) (enzyme) |  |  | binds
